Data reported in PMC7570871 (Molecules, 2020).

Tests used:
peptide made by a vendor = details: whole synthesis, analytical RP-HPLC
[1] = general procedure: Fmoc solid-phase peptide synthesis; details: whole synthesis, analytical RP-HPLC

Row | Substance | final HPLC purity (peptide made by a vendor) [%] | final HPLC purity [1] [%]
1 | DOTA-(4-amino-3-iodo)-D-Phe-c[Cys-(3-iodo)-Tyr-D-Trp-Lys-Val-Cys]-Thr-NH2 | 100 | –
2 | DOTA-D-Phe-c[Cys-1-NaI-D-Trp-Lys-Thr-Cys]Thr(ol) | – | 96
